PubChem BioAssay AID1259254 | NCATS – 2017
Aim: 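Finding genes that stop cells copying their DNA twice in one cycle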 (primary screen). Cells: human HCT116 colorectal cancer cells. Reagent: single siRNA against human genes. Time to read-out: 3 days. Read-out: 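Nuclei stained with Hoechst and imaged; cell-cycle phase assigned by DNA content; G2 share scaled per plate, non-targeting siRNA 0%, GMNN siRNA 100%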. Direction: G2 robust z-score and G2 cells, % of GMNN control: higher = more G2 cells, more excess DNA replication. Active means: 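Active siRNAs have a G2 robust z of 5 or more median absolute deviations over the median, which in these data means about 38% or higher of GMNN control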.
Shown is one part, drawn at random, of about 59,000 deposited reagents. Of all reagents, about 1,550 (2.6%) are marked active. 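G2 share is only a proxy for re-replication; each gene was hit by three separate siRNAs, and active genes were retested.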 Further read-outs or replicates are left out here. Not stated in the record: the amount of reagent.

gene,PubChem SID,G2 robust z-score,"G2 cells, % of GMNN control",Call
CHRNB3 (cholinergic receptor nicotinic beta 3 subunit),SID160743407,-0.726,-2.14,inactive
CHRNB3 (cholinergic receptor nicotinic beta 3 subunit),SID160743418,-1.14,-5.06,inactive
CHRNB3 (cholinergic receptor nicotinic beta 3 subunit),SID160743429,-0.12,2.12,inactive
SVOP (SV2 related protein),SID160743762,0.404,5.81,inactive
SVOP (SV2 related protein),SID160743763,2.65,21.6,inactive
SVOP (SV2 related protein),SID160743764,6.04,45.5,active
MKRN1 (makorin ring finger protein 1),SID160736671,0.0592,3.38,inactive
MKRN1 (makorin ring finger protein 1),SID160736672,-0.381,0.29,inactive
MKRN1 (makorin ring finger protein 1),SID160736673,5.34,40.5,active
COL9A3 (collagen type IX alpha 3 chain),SID160746315,0.643,7.49,inactive
COL9A3 (collagen type IX alpha 3 chain),SID160746326,-0.366,0.389,inactive
COL9A3 (collagen type IX alpha 3 chain),SID160746336,-0.41,0.0844,inactive
SANBR (SANT and BTB domain regulator of CSR),SID160752393,2.22,18.6,inactive
SANBR (SANT and BTB domain regulator of CSR),SID160752394,0.0771,3.51,inactive
SANBR (SANT and BTB domain regulator of CSR),SID160752395,0.0903,3.6,inactive
"ALOX12 (arachidonate 12-lipoxygenase, 12S type)",SID160716595,-0.0726,2.46,inactive
"ALOX12 (arachidonate 12-lipoxygenase, 12S type)",SID160716606,0.532,6.71,inactive
"ALOX12 (arachidonate 12-lipoxygenase, 12S type)",SID160716617,-1.04,-4.35,inactive
LGALS14 (galectin 14),SID160745219,-0.641,-1.54,inactive
LGALS14 (galectin 14),SID160745221,-0.272,1.05,inactive
LGALS14 (galectin 14),SID160745222,-1,-4.09,inactive
ZBTB17 (zinc finger and BTB domain containing 17),SID160719201,-1.03,-4.3,inactive
ZBTB17 (zinc finger and BTB domain containing 17),SID160719202,0.164,4.12,inactive
ZBTB17 (zinc finger and BTB domain containing 17),SID160719203,-0.128,2.07,inactive
NIT1 (nitrilase 1),SID160778078,-0.643,-1.56,inactive
NIT1 (nitrilase 1),SID160778079,2.03,17.2,inactive
NIT1 (nitrilase 1),SID160778080,1.15,11.1,inactive
RPL18A (ribosomal protein L18a),SID160716056,1.71,15,inactive
RPL18A (ribosomal protein L18a),SID160716057,5.64,42.6,active
RPL18A (ribosomal protein L18a),SID160716058,4.53,34.9,inactive
NCKAP5L (NCK associated protein 5 like),SID160762865,-0.697,-1.94,inactive
NCKAP5L (NCK associated protein 5 like),SID160762866,1.59,14.1,inactive
NCKAP5L (NCK associated protein 5 like),SID160762867,0.515,6.59,inactive
BCL2L10 (BCL2 like 10),SID160724002,2.14,18,inactive
BCL2L10 (BCL2 like 10),SID160724008,-0.861,-3.09,inactive
BCL2L10 (BCL2 like 10),SID160730393,-0.766,-2.42,inactive
ZC3HAV1L (ZC3HAV1 like),SID160754177,0.289,5,inactive
ZC3HAV1L (ZC3HAV1 like),SID160754178,-0.0475,2.63,inactive
ZC3HAV1L (ZC3HAV1 like),SID160754179,0.948,9.64,inactive

The list goes on; the last 5 above are carried over.
gene,PubChem SID,G2 robust z-score,"G2 cells, % of GMNN control",Call
BCL2L10 (BCL2 like 10),SID160724008,-0.861,-3.09,inactive
BCL2L10 (BCL2 like 10),SID160730393,-0.766,-2.42,inactive
ZC3HAV1L (ZC3HAV1 like),SID160754177,0.289,5,inactive
ZC3HAV1L (ZC3HAV1 like),SID160754178,-0.0475,2.63,inactive
ZC3HAV1L (ZC3HAV1 like),SID160754179,0.948,9.64,inactive
KPNA4 (karyopherin subunit alpha 4),SID160776354,-0.725,-2.13,inactive
KPNA4 (karyopherin subunit alpha 4),SID160776355,-1.01,-4.14,inactive
KPNA4 (karyopherin subunit alpha 4),SID160776356,0.513,6.57,inactive
CRABP1 (cellular retinoic acid binding protein 1),SID160747835,-0.501,-0.561,inactive
CRABP1 (cellular retinoic acid binding protein 1),SID160747845,1.7,14.9,inactive
CRABP1 (cellular retinoic acid binding protein 1),SID160747855,-0.709,-2.02,inactive
LCA5L (lebercilin LCA5 like),SID160758901,0.692,7.83,inactive
LCA5L (lebercilin LCA5 like),SID160758902,-0.368,0.379,inactive
LCA5L (lebercilin LCA5 like),SID160758903,-0.373,0.342,inactive
GBP1 (guanylate binding protein 1),SID160769700,2.08,17.6,inactive
GBP1 (guanylate binding protein 1),SID160769710,-0.32,0.714,inactive
GBP1 (guanylate binding protein 1),SID160769720,-1.13,-4.96,inactive
KHDRBS3,SID160728974,0.0549,3.35,inactive
KHDRBS3,SID160728975,0.11,3.74,inactive
KHDRBS3,SID160728977,1.29,12,inactive
ZNF648 (zinc finger protein 648),SID160756657,0.143,3.97,inactive
ZNF648 (zinc finger protein 648),SID160756658,3.68,28.8,inactive
ZNF648 (zinc finger protein 648),SID160756659,-1.12,-4.92,inactive
CSTA (cystatin A),SID160730648,0.83,8.81,inactive
CSTA (cystatin A),SID160749885,1.34,12.4,inactive
CSTA (cystatin A),SID160749906,0.221,4.52,inactive
ELP2 (elongator acetyltransferase complex subunit 2),SID160743345,-0.553,-0.927,inactive
ELP2 (elongator acetyltransferase complex subunit 2),SID160743346,-0.291,0.922,inactive
ELP2 (elongator acetyltransferase complex subunit 2),SID160743347,-0.727,-2.14,inactive
HMBOX1 (homeobox containing 1),SID160749007,-0.746,-2.28,inactive
HMBOX1 (homeobox containing 1),SID160749008,0.884,9.19,inactive
HMBOX1 (homeobox containing 1),SID160749009,0.326,5.26,inactive
RNF144B (ring finger protein 144B),SID160762334,0.0308,3.18,inactive
RNF144B (ring finger protein 144B),SID160762335,-0.318,0.732,inactive
RNF144B (ring finger protein 144B),SID160762336,-1.01,-4.11,inactive
